No constants are given. Whether binding was seen depends on the method and setting. Some binding calls cover weakened binding; strength is not graded here. For part of these data: Tags and fused reporters may be left off the sequences shown.
B1: H338L293 (SEQ ID NOs 182 and 187) (antibody, V domains shown)
VH: EVQLLESGGGLVQPGGSLRLSCAASGFTFSSYAMSWVRQAPGKGLEWVSAISPREGWQYYADSVKGRFTISRDNSKNTLYLQMNSLRAEDTAVYYCVRVVAGYFDSWGRGTLVTVSS
VL: SYELMQPPSVSVSPGQTARITCSGDALPKQYAHWYQQKPGQAPVLVIYKDTERPSGIPERFSGSSSGTTVTLTISGVQAEDEADYYCMSSDPSGASRVFGGGTKLTVL
B2: IL330425 (antibody, V domains shown)
VH: QVQLVQSGGGVVQPGRSLRLSCAASGFTFSEYSMHWVRQAPGKGLEYVSTISSNGAGTYYADSVKGRVTISRDNSKNTLYVQMSSLRPEDTAVYYCVKSLTKYPYGNYFDYWGRGTTVTVSS
VL: SSELTQDPAVSVALGQTVRITCQGDSLRSYYASWYQQKPGQAPVLVIYGKNNRPSGIPDRFSGSSSGNTASLTITRAQAEDEADYYCNSRDSSGNHVVFGGGTKLTVL
B3: IL330428 (antibody, V domains shown)
VH: QVQLVQSGAETKKSGASVKVSCKTSGYTFDNFGISWVRQAPGQGLEWIGWISIYNGNTDYAQNLRGRLTLTTDTSTSTVHMELKSLRSDDTAIYYCARGGGISSSWTPDYYFDYWGQGTLVTVSS
VL: SSELTQDPAVSVASGQTVRLTCQGDTLRNYYSNWYQQRPGQAPVLVLYGNNRRPPGIPARFSGSHSGNTGSLIITGAQAEDEAEYHCAARDSSGDHVVFGGGTKVTVL

Experiments:
[1] = target: T1, Human IL-33 Flag®His (human); assay: size exclusion chromatography of IL-33:IgG complexes
T1 sequence: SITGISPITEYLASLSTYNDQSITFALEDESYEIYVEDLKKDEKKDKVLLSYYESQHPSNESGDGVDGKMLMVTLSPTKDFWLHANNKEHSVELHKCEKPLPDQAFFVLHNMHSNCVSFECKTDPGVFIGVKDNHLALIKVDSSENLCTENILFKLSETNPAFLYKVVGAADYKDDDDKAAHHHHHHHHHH

[2] = target: T1, Human IL-33 Flag®His (human); assay: HTRF: IL-33FH binding to biotinylated ST2-Fc, IgG titrated; directly competitive (B) or after 18 h pre-incubation of IgG with IL-33 (C)
[3] = target: Recombinant human IL-33 (construct not named in the example) (human) (UniProt O95760); assay: Octet RED 384, scFv periprep on Ni-NTA sensor, IL-33 200 nM
[4] = target: H338L293 (SEQ ID NOs 182 and 187); assay: Biacore T100, IgG captured on Protein G', peptide as analyte

Binder	binding [3]	binding [4]	further results
B1			binding [1]: binds; binding [2]: binds
B2	binds		
B3	binds		
MLMVTLSPTKDFWLHANNKEHSVELHK [IL-33 tryptic epitope peptide (full length synthetic epitope peptide)]		binds	
LSPTKDFWLHANNKEHSVELHK [Truncated IL-33 epitope peptide]		binds	

Reference: patent US20200353078A1
